From publication PMC10177872

By UniProt entry, the sequences of proteins in these tests, tags left out. Where a name states a change or a piece, a line headed by the entry shows the natural chain unless it says otherwise.
UniProt Q60710: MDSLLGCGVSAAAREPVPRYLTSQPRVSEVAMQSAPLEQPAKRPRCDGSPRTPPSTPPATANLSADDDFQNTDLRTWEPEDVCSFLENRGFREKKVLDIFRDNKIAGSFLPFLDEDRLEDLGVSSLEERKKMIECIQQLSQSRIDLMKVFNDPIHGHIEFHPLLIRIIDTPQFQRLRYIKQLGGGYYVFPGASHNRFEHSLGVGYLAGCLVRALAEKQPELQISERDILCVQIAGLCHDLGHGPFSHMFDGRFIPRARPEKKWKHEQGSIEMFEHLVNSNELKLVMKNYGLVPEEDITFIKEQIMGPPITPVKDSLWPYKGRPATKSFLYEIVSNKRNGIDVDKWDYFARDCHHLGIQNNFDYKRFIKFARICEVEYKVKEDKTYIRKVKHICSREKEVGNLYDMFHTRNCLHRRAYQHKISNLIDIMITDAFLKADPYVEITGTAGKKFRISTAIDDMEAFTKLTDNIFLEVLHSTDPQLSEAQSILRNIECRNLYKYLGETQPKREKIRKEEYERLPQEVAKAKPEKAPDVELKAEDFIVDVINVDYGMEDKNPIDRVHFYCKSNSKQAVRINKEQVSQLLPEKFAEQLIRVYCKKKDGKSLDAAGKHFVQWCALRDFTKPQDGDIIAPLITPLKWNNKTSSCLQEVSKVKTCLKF
UniProt Q60932: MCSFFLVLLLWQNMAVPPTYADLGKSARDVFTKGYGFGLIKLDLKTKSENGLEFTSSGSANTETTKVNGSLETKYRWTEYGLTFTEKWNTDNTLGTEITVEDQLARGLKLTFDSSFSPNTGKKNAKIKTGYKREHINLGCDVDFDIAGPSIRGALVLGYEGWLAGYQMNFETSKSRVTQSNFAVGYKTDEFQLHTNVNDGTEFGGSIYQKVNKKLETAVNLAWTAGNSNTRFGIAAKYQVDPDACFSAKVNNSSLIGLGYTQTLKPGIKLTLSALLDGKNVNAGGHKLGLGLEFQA

Molecular target: SAM and HD domain-containing deoxynucleoside triphosphate triphosphohydrolase 1 (SAMHD1) (mouse (endogenous in RAW264.7)) (UniProt Q60710)
Test: co-IP; anti-SAMHD1 immunoprecipitation from lysates of wild-type RAW264.7 cells under normal conditions, IgG as isotype control; immunoblot of VDAC1, VDAC2 and SAMHD1

binding: binds
Substance: voltage-dependent anion channel-1 (VDAC1) (from UniProt Q60932)

These are yes or no findings as the source states them, for the method shown. In cells and extracts the contact can be indirect. A result given as binding can be weak or reduced; the word gives no strength.
